Source: patent US11733246B2 (Indi Molecular, Inc., priority 2020, dated 2023)

Assay: general procedure: Fmoc solid-phase peptide synthesis; CTC resin; HBTU/DIPEA in DMF
Details: whole synthesis, analytical HPLC and LC/MS

Substance: Fol-hshta-Gly-Phe-Lys(DOTA)
- final HPLC purity: 97%
